# The whole screen tested about 53,000 sequences, of which about 3,700 (7%) were called active.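 How the source made its calls: active means gene knockdowns whose robust z-score for IL-1 alpha signal is at least 2 or at most -2, so actives lie on both sides; inactive means the rest.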 Some of the results follow.
# Assay: Components of the Cytosolic LPS Sensing Pathway: Gene Identification via Genome-wide siRNA Screen;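 further: robust z of the log signal after scaling to non-targeting control siRNA wells of the plate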
# Conditions: RAW264.7 macrophages, IL-1a HTRF, actives lie on both sides, screened at 100 nM (by protocol), cells primed 5 h with Pam3CSK4 first
# Method in brief: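 Using IL-1a HTRF as read-out, the screen measured release from RAW264.7 cells after 48h siRNA knockdown (100 nM), 5 h Pam3CSK4 priming and 24 h cytosolic LipidA. Values were expressed relative to negative-control wells as robust z-scores.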
row,Sequence,z-score
1,GGUGCUUUUAGUCUAGCUATT against Pcdhac1,inactive: 1.83
2,CCAUUUGAGGUAUUGGUAUTT against Acadsb,inactive: -0.587
3,GCUUUAUGCCAGUUGUCAUTT against Slc35f1,inactive: -0.927
4,GGCUACAAGUGGGAAUUCATT against Cmtm2b,inactive: 1.61
5,GGCAAGGUCUUGGAUGUGATT against Mx1,inactive: -0.574
6,CGACUUCCAGUUUGUGCAGTT against Dpp9,inactive: -0.575
7,GGUGAAAAGUCAAUUUUACTT against Neurog1,inactive: -0.562
8,GGACCUCACUGAGACCUUATT against Anxa8,inactive: -0.375
9,CGUGAAUCUGCACCACGUUTT against Fads6,inactive: 0.474
10,GCAGUCACUUUUUAGUAUCTT against Vmn1r44,inactive: 0.294
11,GGAUGAAAAGCUUCAAUGUTT against Tomm70a,inactive: -0.468
12,GGCAUUUCUUCAAAGCUGATT against Il1bos,inactive: -0.0768
13,CGCACUAGGUGAGUUCAUCTT against Dab2ip,inactive: 0.725
14,CCUUGAGAAAGCUCCAGUUTT against Cldn9,inactive: 0.0773
15,GCUUUACCUGCUCAGAAGCTT against Olfr520,active: -2.26
16,CCGGUUAUAGCGAACAUUUTT against Appl1,inactive: 1.63
17,GGAAGAAAUCAUGAGGAACTT against Xab2,inactive: -0.616
18,CGGUAUGUGUUGUCAGAGGTT against Mypop,inactive: -0.695
19,GCCUCCACAGACAAAUACGTT against Synrg,inactive: -0.129
20,GAGCAGAGGAUUGAUGCACTT against Nlrp4g,inactive: 0.918
21,GGCACGUUAUGAAGACCAGTT against Ttc6,inactive: 1.49
22,GGAGGAAAUGCACUACAAGTT against Pcif1,inactive: 1.88
23,GGAAGUACAAACUACUAGUTT against Mcmbp,inactive: -0.393

row,Sequence,z-score
1,GUAUUAAGACCAAACAGAUTT against Olfr623,inactive: -0.497
2,GGACCUGAGUUAGGAGAAUTT against Zfp105,active: -2.06
3,GGUGAUAAUAAAAAUGCAGTT against Pzp,inactive: -0.0816
4,GGGAUGUAUUUCAACAACUTT against Wwox,inactive: 0.0276
5,CCUUGAUGGUAAAUACUCATT against Vmn1r200,inactive: -0.879
6,GCCUUCGAAGUCGUCCAAGTT against Cdca5,inactive: 0.612
7,CCUACUGUUGCUAUUACCATT against Oscar,inactive: -1.99
8,GGAACUGGCCAAGUACUUCTT against Sst,inactive: 0.412
9,GGAUGACAAGGUUAAGCUATT against Golm2,inactive: -0.0855
10,GGUUUGAAAUGAAACUUCATT against Nedd4l,inactive: -0.0699
11,GGCUUCCUUCAGUGAGAAUTT against 1810065E05Rik,active: -2.02
12,GGUUCCUUUCCUUGAACUUTT against Mtmr3,inactive: 1.37
13,GUGCAACGUGAGCAAUACGTT against Selenbp2,inactive: -0.417
14,GGCACAUCAGAAUGGUUUATT against Txnrd3,inactive: 1.27
15,GCUCAGAUCUUAUGAUACATT against Zfp35,inactive: 0.398
16,GGAGAUCCGGAAUUUUUAATT against Per2,inactive: -0.0639
17,GGACUUCUUGCUGGUCUAGTT against Spg7,inactive: 1.71
18,GGACCACAUUUUAUGUUGUTT against Trmt10b,inactive: -0.129
19,GGAGGUGUAGAGAUGAAGCTT against Metap1d,inactive: 1.51
20,CCUGCCUUUUCCUAAUGAATT against Ovca2,inactive: 0.48
21,GGACCCAAAUCUUUUUAGATT against Wac,inactive: -1.03
22,GGCCAUAGUGCAGUUAGGUTT against Cd24a,inactive: -0.054
23,GCUCCAGGGCAUUGUUUCUTT against Gm5409,inactive: 0.64

row,Sequence,z-score
1,GUAACUCCUCCAUGAACUCTT against a,inactive: 0.249
2,CCAGGUUCUCCGAAUCUCUTT against Cpa1,inactive: -0.854
3,GGCAGGAACUUUAUAAGGATT against Xlr4b,inactive: 0.398
4,GUUCUGAAGGGCGACGUAATT against Olfr1217,inactive: 0.52
5,GGUGGAUCAUACAAAUUUGTT against Pank2,inactive: 0.584
6,GGGUAUUAAUGCCUCUGCATT against Gpr183,inactive: -1.29
7,CCAGAAAGAGAGCUCUAGGTT against Diaph1,inactive: 1.57
8,GGCUCAUUUUGAAGCUAAGTT against Bud13,inactive: 0.899
9,GGCAGGUAAUAAAGUUUGUTT against Kcne1l,inactive: 1.45
10,CCUUACUCAAGAUCCUGCUTT against Olfr1243,inactive: -0.23
11,GGACGACUACAGCUAUGACTT against Klk1b1,inactive: 0.11
12,CCAUGUUCAAGUCAAAACUTT against Poglut1,inactive: -0.167
13,GGCCCAGAUUUCUUAUAUATT against Tnfrsf19,inactive: 0.618
14,GGGACAGGUUGUUCAGUUCTT against Dbt,inactive: -0.448
15,GGAGCUGGACAAGUUUAAGTT against Tjap1,inactive: -0.302
16,GACUCCCAGCUGGCUAUGATT against Ifna9,inactive: 0.583
17,CCAAUAGAGAAACUUUCUCTT against Micu2,inactive: -0.147
18,GGAAAAGCUUCUAAAGGAGTT against Tnfaip3,inactive: 0.884
19,GGUGAAAGACCACAAAUUCTT against Prkca,inactive: -0.824
20,CCAAUGUGCGAGCAAAGAUTT against Arid5a,active: 2.48
21,GGCUUCACUAUACGAGAGATT against Mical1,inactive: -0.167
22,GGAGAAUCCGAGGAUAACUTT against Ereg,inactive: 0.774

# Quoted at random: 5 entries already listed
row,Sequence,z-score
14,GGCACAUCAGAAUGGUUUATT against Txnrd3,inactive: 1.27
16,CCGGUUAUAGCGAACAUUUTT against Appl1,inactive: 1.63
22,GGAGAAUCCGAGGAUAACUTT against Ereg,inactive: 0.774
7,GGUGAAAAGUCAAUUUUACTT against Neurog1,inactive: -0.562
13,GGCCCAGAUUUCUUAUAUATT against Tnfrsf19,inactive: 0.618
